# Test results reported in the supplement of paper PMC12542422.
# Counter-ions that a name gives are not always drawn. ± gives the standard deviation of the averaged measurements. The list shows a part of the results. These are raw signals, not scaled to a control.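 Ribosome-assembly readouts in HeLa cells were imaged via ENP1 staining, with or without export block, or inducible tagged ribosomal protein reporters. Machine learning classified per-cell signal location versus solvent (DMSO) controls. Hits surpassed the DMSO false-positive mean by five standard deviations and were visually confirmed; three biological replicates.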
# Test system: HeLa RPS2-YFP reporter
# Assay: fraction of reporter-positive cells with nuclear (nucleolar or nucleolar/nucleoplasmic) RPS2-YFP (MainHitrate); higher = more cells with nucleolar/nuclear readout signal (for ENP1 -LMB: less RNAPI inhibition; for +LMB ENP1 and RP reporters: stronger nuclear/nucleolar retention, i.e. ribosome biogenesis defect)
# Details: concentration: 1 µM; treatment time: 6 h
row,SMILES,fraction of reporter-positive cells with nuclear
1,CCc1c(Cl)c(O)c(Cl)c(O)c1C(=O)O[C@H]1[C@H](O)[C@H](OC)[C@H](OC/C2=C\C=C\C[C@H](O)/C(C)=C/[C@H](CC)[C@@H](O[C@@H]3OC(C)(C)[C@@H](OC(=O)C(C)C)[C@H](O)[C@@H]3O)/C(C)=C/C(C)=C/C[C@@H]([C@@H](C)O)OC2=O)O[C@@H]1C [Fidaxomicin],0.147 ± 0.12
2,COc1ccc(CN2CCN(C(c3ccc(F)cc3)c3ccc(F)cc3)CC2)c(OC)c1OC [Lomerizine HCl],0.117 ± 0.096
3,CC(N/C(=N\C#N)Nc1ccncc1)C(C)(C)C (centres undefined) [Pinacidil],0.395 ± 0.3
4,CO[C@H]1/C=C/O[C@@]2(C)Oc3c(C)c(O)c4c(O)c(c(/C=N/N5CCN(C6CCCC6)CC5)c(O)c4c3C2=O)NC(=O)/C(C)=C\C=C\[C@H](C)[C@H](O)[C@@H](C)[C@@H](O)[C@@H](C)[C@H](OC(C)=O)[C@@H]1C [Rifapentine (Priftin)],0.108 ± 0.073
5,CC(C)NCC(O)COc1ccc(CCOCC2CC2)cc1 (centres undefined) [Betaxolol (Betoptic)],0.111 ± 0.1
6,N=C(N)c1ccc(OCCCCCOc2ccc(C(=N)N)cc2)cc1 [Pentamidine],0.125 ± 0.1
7,COc1ccc2cc1Oc1ccc(cc1)C[C@H]1c3c(cc4c(c3Oc3cc5c(cc3OC)CCN(C)[C@@H]5C2)OCO4)CCN1C [Cepharanthine],0.155 ± 0.12
8,COC(=O)C1=C(C)NC(C)=C(C(=O)OC2CCCN(Cc3ccccc3)C2)C1c1cccc([N+](=O)[O-])c1 (centres undefined) [Benidipine hydrochloride],0.131 ± 0.067
9,CC[C@H](C)C(=O)O[C@H]1C[C@H](O)C=C2C=C[C@H](C)[C@H](CC[C@@H](O)C[C@@H](O)CC(=O)O)[C@H]21 [Pravastatin sodium],0.124 ± 0.089
10,Nc1ccn([C@@H]2O[C@H](CO)[C@@H](O)[C@H]2O)c(=O)n1 [Cytidine],0.107 ± 0.045
11,CCN[C@H]1C[C@H](C)S(=O)(=O)c2sc(S(N)(=O)=O)cc21 [Dorzolamide HCL],0.103 ± 0.074
12,O=C1CN2Cc3c(ccc(Cl)c3Cl)N=C2N1 [Anagrelide HCl],0.17 ± 0.13
13,CCOC(=O)O[C@]1(C(=O)OCCl)CC[C@H]2[C@@H]3CCC4=CC(=O)C=C[C@]4(C)[C@H]3[C@@H](O)C[C@@]21C [Loteprednol etabonate],0.108 ± 0.093
14,Cc1ccc(S(=O)(=O)NC(=O)NN2CCCCCC2)cc1 [Tolazamide],0.17 ± 0.16
15,CC[C@H]1OC(=O)[C@H](C)[C@@H](O[C@H]2C[C@@](C)(OC)[C@@H](O)[C@H](C)O2)[C@H](C)[C@@H](O[C@@H]2O[C@H](C)C[C@H](N(C)C)[C@H]2O)[C@](C)(O)C[C@@H](C)/C(=N\OCOCCOC)[C@H](C)[C@@H](O)[C@]1(C)O [Roxithromycin (Roxl-150)],0.12 ± 0.079
16,CC(C)[C@H]1CC[C@H](C(=O)N[C@H](Cc2ccccc2)C(=O)O)CC1 [Nateglinide (Starlix)],0.0891 ± 0.069
17,CC(C)C[C@H](NC(=O)[C@H](CCc1ccccc1)NC(=O)CN1CCOCC1)C(=O)N[C@@H](Cc1ccccc1)C(=O)N[C@@H](CC(C)C)C(=O)[C@@]1(C)CO1 [Carfilzomib (PR-171)],0.584 ± 0.48
18,COc1ccc(Cl)cc1C(=O)NCCc1ccc(S(=O)(=O)NC(=O)NC2CCCCC2)cc1 [Glyburide (Diabeta)],0.114 ± 0.082
19,CN(C)[C@@H]1C(O)=C(C(N)=O)C(=O)[C@@]2(O)C(O)=C3C(=O)c4c(O)cccc4[C@@](C)(O)[C@H]3[C@H](O)[C@@H]12 [Oxytetracycline (Terramycin)],0.103 ± 0.059
20,CC(=O)O[C@H]1C[C@@H]2CC[C@@H]3[C@H](CC[C@@]4(C)[C@H]3C[C@H]([N+]3(C)CCCCC3)[C@@H]4OC(C)=O)[C@@]2(C)C[C@@H]1N1CCCCC1 [Vecuronium Bromide],0.114 ± 0.079

row,SMILES,fraction of reporter-positive cells with nuclear
1,COc1ccc2[nH]c([S@@+]([O-])Cc3ncc(C)c(OC)c3C)nc2c1 [Esomeprazole sodium (Nexium)],0.112 ± 0.094
2,CNS(=O)(=O)Cc1ccc2[nH]cc(CCN(C)C)c2c1 [Sumatriptan succinate],0.124 ± 0.075
3,O=C(O)/C=C/c1ccc(Cn2ccnc2)cc1 [Ozagrel],0.0904 ± 0.063
4,COc1c(C)c2c(c(O)c1C/C=C(\C)CCC(=O)OCCN1CCOCC1)C(=O)OC2 [Mycophenolate mofetil (CellCept)],0.118 ± 0.079
5,N#CC[C@H](C1CCCC1)n1cc(-c2ncnc3[nH]ccc23)cn1,0.0958 ± 0.056
6,Nc1nc2ccc(OC(F)(F)F)cc2s1 [Riluzole (Rilutek)],0.0877 ± 0.056
7,O=C(O)c1cc(=O)c2c(OCC(O)COc3cccc4oc(C(=O)O)cc(=O)c34)cccc2o1 [Disodium Cromoglycate],0.11 ± 0.093
8,Cc1cccc(Nc2ccccc2C(=O)O)c1C [Mefenamic acid],0.0958 ± 0.074
9,Nc1nc(F)nc2c1ncn2[C@@H]1O[C@H](COP(=O)(O)O)[C@@H](O)[C@@H]1O [Fludarabine Phosphate (Fludara)],0.107 ± 0.048
10,CN(C)c1nc(N(C)C)nc(N(C)C)n1 [Altretamine (Hexalen)],0.123 ± 0.078
11,Nc1nc(Cl)nc2c1ncn2[C@@H]1O[C@H](CO)[C@@H](O)[C@@H]1F [Clofarabine],0.101 ± 0.054
12,Cc1ccccc1C(OCCN(C)C)c1ccccc1 (centres undefined) [Orphenadrine citrate (Norflex)],0.119 ± 0.1
13,COc1ccc(CN(CCN(C)C)c2ccccn2)cc1 [Pyrilamine Maleate],0.202 ± 0.15
14,CCC(C)n1ncn(-c2ccc(N3CCN(c4ccc(OCC5COC(Cn6cncn6)(c6ccc(Cl)cc6Cl)O5)cc4)CC3)cc2)c1=O (centres undefined) [Itraconazole (Sporanox)],0.0631 ± 0.029
15,NC(=O)c1cccnc1 [Nicotinamide (Niacinamide)],0.131 ± 0.068
16,N[C@@H](Cc1ccc(O)c(O)c1)C(=O)O [Levodopa (Sinemet)],0.13 ± 0.07
17,C[C@]12CCC3=C4CCC(=O)C=C4CC[C@H]3[C@@H]1CC[C@@]2(O)CC#N [Dienogest],0.117 ± 0.075
18,CC(C)/N=c1\cc2n(-c3ccc(Cl)cc3)c3ccccc3nc-2cc1Nc1ccc(Cl)cc1 [Clofazimine],0.16 ± 0.14
19,CO[C@H]1/C=C/O[C@@]2(C)Oc3c(C)c(O)c4c(c3C2=O)C2=NC3(CCN(CC(C)C)CC3)NC2=C(NC(=O)/C(C)=C\C=C\[C@H](C)[C@H](O)[C@@H](C)[C@@H](O)[C@@H](C)[C@H](OC(C)=O)[C@@H]1C)C4=O [Rifabutin (Mycobutin)],0.105 ± 0.062

# Not a retest: entries from further up.
row,SMILES,fraction of reporter-positive cells with nuclear
11,Nc1nc(Cl)nc2c1ncn2[C@@H]1O[C@H](CO)[C@@H](O)[C@@H]1F [Clofarabine],0.101 ± 0.054
12,Cc1ccccc1C(OCCN(C)C)c1ccccc1 (centres undefined) [Orphenadrine citrate (Norflex)],0.119 ± 0.1
13,COc1ccc(CN(CCN(C)C)c2ccccn2)cc1 [Pyrilamine Maleate],0.202 ± 0.15
